Test results: PubChem BioAssay AID493014 (National Center for Advancing Translational Sciences (NCATS), 2011)
Some of the results follow. Further columns of the screen follow, without active or inactive calls. Compounds called inactive in the main read-out are mostly missing here. Potencies come from curve fits of mixed quality, noted in brackets.

Test: qHTS Assay to Find Inhibitors of Chronic Active B-Cell Receptor Signaling
Conditions: ABC-DLBCL IkBa-CBG/CBR reporter, luminescence ratio (green luciferase fused to IkBa over red control in TMD8 lymphoma cells), 4 h; measured here: CBR red luminescence, cell number
In short: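 Concentration-response series (up to 46 uM) were applied to TMD8 dual-reporter cells for 4 h at 37C with doxycycline. Green/red ratio, after filter-overlap correction, defined %Activity; red signal alone was normalised to basal cells and zero luminescence.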

Structure (SMILES)	AC50
CC(C)Cc1cc(C(=O)NCc2ccco2)no1	22.4 µM [falling, single point]
COc1ccc(-c2[nH]c(-c3cccc(OC)c3)nc2SCC(=O)NC2CCCC2)cc1	18.4 µM [falling, single point]
Cc1ccc(C2=NC3(CCCC3)N=C2SCC(=O)Nc2ccc3c(c2)OCCO3)cc1	29.1 µM [falling, single point]
COc1cc(C)nc(N2CCCC(C(=O)Nc3cccc(Cl)c3Cl)C2)n1 (configuration not stated)	13 µM [rising, partial curve, poor fit]
CCC(=O)N1c2ccccc2[C@@H](N(C(C)=O)c2ccccc2)C[C@H]1C	6.51 µM [rising, full curve, poor fit]
COC(=O)c1cccc(NC(=O)/C=C/c2cccc([N+](=O)[O-])c2)c1	7.94 µM [falling, partial curve, poor fit]
O=C1/C(=C/c2ccc(F)cc2)SC(=S)N1CCCC(=O)N1CCCCC1CCO (configuration not stated)	11.2 µM [falling, partial curve]
Nc1cc(=O)[nH]c(SCC(=O)c2ccc(F)cc2)n1	35.5 µM [rising, single point]
C=CCn1c(C)cc(C(=O)COC(=O)CCc2cc(OC)c(OC)c(OC)c2)c1C	10.3 µM [rising, partial curve]
C[C@H](NC(=O)c1ccc(Br)cc1)C(=O)NCc1ccc(S(N)(=O)=O)cc1	0.141 µM [falling, full curve, poor fit]
CC(=O)c1c(C)[nH]c(C(=O)Nc2nccs2)c1C	1.41 µM [falling, full curve, poor fit]
CC/C(Cc1ccccc1)=N\NC(=O)c1cc(C)oc1C	7.31 µM [falling, partial curve, poor fit]
CC(C)(C)NC(=O)Cn1nnc(-c2ccccc2Cl)n1	35.5 µM [falling, partial curve, poor fit]
CC1CCCN(c2c([N+](=O)[O-])cc(C(=O)O)cc2[N+](=O)[O-])C1 (configuration not stated)	22.4 µM [falling, single point]
CC(=O)c1sc2nc(CSc3nnnn3-c3ccccc3)[nH]c(=O)c2c1C	10 µM [falling, partial curve, poor fit]
O=C(C#Cc1ccccc1)c1ccc([N+](=O)[O-])cc1	18.4 µM [rising, partial curve, poor fit]
O=C(CN1CCN(c2ccccc2O)CC1)NC(c1ccccc1)c1ccccc1	29.1 µM [falling, single point]

Quoted at random: two compounds from above
Structure (SMILES)	AC50
COc1cc(C)nc(N2CCCC(C(=O)Nc3cccc(Cl)c3Cl)C2)n1 (configuration not stated)	13 µM [rising, partial curve, poor fit]
Nc1cc(=O)[nH]c(SCC(=O)c2ccc(F)cc2)n1	35.5 µM [rising, single point]
